Reference: the supplement of paper PMC8426693
This is one part of the list. Single values are uncertain, as repeats are few or missing.

Assays:
Settings in all cases: RNA concentration 10 µM; fragment concentration 200 µM; 293 K
[1] = tested on: SARS-CoV-2 5_SL5stem RNA; test: 1H chemical shift perturbation upon RNA addition; higher = stronger binding
[2] = tested on: SARS-CoV-2 3'-UTR RNA; test: waterLOGSY factor (bound vs free ligand) (ratio); higher = stronger binding
[3] = tested on: SARS-CoV-2 3_SL3base RNA; test: as above
[4] = tested on: SARS-CoV-2 3_s2m RNA; test: as above
[5] = tested on: SARS-CoV-2 5_SL1234 RNA; test: as above
[6] = tested on: SARS-CoV-2 5_SL4 RNA; test: as above
[7] = tested on: SARS-CoV-2 5_SL5 RNA; test: as above
[8] = tested on: SARS-CoV-2 5_SL5b+c RNA; test: 1H chemical shift perturbation upon RNA addition; higher = stronger binding
[9] = tested on: SARS-CoV-2 5_SL7 RNA; test: as above
[10] = tested on: SARS-CoV-2 frameshift pseudoknot (PK) RNA; test: as above
[11] = tested on: SARS-CoV-2 3_SL1 RNA; test: waterLOGSY factor (bound vs free ligand) (ratio); higher = stronger binding
[12] = tested on: SARS-CoV-2 3_SL1+2 RNA; test: as above
[13] = tested on: SARS-CoV-2 3_SL2 RNA; test: as above
[14] = tested on: SARS-CoV-2 5_SL1 RNA; test: as above
[15] = tested on: SARS-CoV-2 5_SL5b+c RNA; test: as above
[16] = tested on: SARS-CoV-2 5_SL5 RNA; test: 1H chemical shift perturbation upon RNA addition; higher = stronger binding
[17] = tested on: SARS-CoV-2 5'-UTR RNA; test: waterLOGSY factor (bound vs free ligand) (ratio); higher = stronger binding
[18] = tested on: SARS-CoV-2 5_SL6 RNA; test: 1H chemical shift perturbation upon RNA addition; higher = stronger binding
[19] = tested on: SARS-CoV-2 5_SL8 RNA; test: as above

**Q.** With `Cc1cccc(NC(=O)Nc2nc(C)cs2)c1` as the compound, how does the “1H chemical shift perturbation upon RNA addition” value [1] read?
**A.** Its value is 7 Hz.

**Q.** And the waterLOGSY factor [2]?
**A.** The waterLOGSY factor was 1.61.

**Q.** What about the waterLOGSY factor [3] of the same compound?
**A.** Its waterLOGSY factor is 5.97.

**Q.** What about the waterLOGSY factor [4] of the same compound?
**A.** Its waterLOGSY factor is 4.57.

**Q.** What about the waterLOGSY factor [5] of the same compound?
**A.** Its waterLOGSY factor is 6.15.

**Q.** And the waterLOGSY factor [6]?
**A.** Its waterLOGSY factor is 2.03.

**Q.** What about the waterLOGSY factor [7] of the same compound?
**A.** The waterLOGSY factor was 3.8.

**Q.** What does the source list for `CCNC1CCN(c2ccncc2)CC1`?
**A.** 1H chemical shift perturbation upon RNA addition [8]: 10 Hz; 1H chemical shift perturbation upon RNA addition [9]: 13 Hz; 1H chemical shift perturbation upon RNA addition [10]: 9 Hz; waterLOGSY factor [2]: 2.65; waterLOGSY factor [11]: 1.46; waterLOGSY factor [12]: 1.88; waterLOGSY factor [13]: 0.96; waterLOGSY factor [3]: 1.76; waterLOGSY factor [4]: 1.46; waterLOGSY factor [14]: 0.841; waterLOGSY factor [15]: 1.03

**Q.** How did the “1H chemical shift perturbation upon RNA addition” value [16] turn out when `Cc1ccc(-c2noc(CNC(C)C)n2)cc1` was run?
**A.** Its value is 10 Hz.

**Q.** What about the “1H chemical shift perturbation upon RNA addition” value [9] of the same compound?
**A.** Its value is 12 Hz.

**Q.** What about the waterLOGSY factor [2] of the same compound?
**A.** Its waterLOGSY factor is 1.64.

**Q.** And the waterLOGSY factor [3]?
**A.** The waterLOGSY factor was 1.3.

**Q.** And the waterLOGSY factor [7]?
**A.** The waterLOGSY factor was 1.26.

**Q.** How did the “1H chemical shift perturbation upon RNA addition” value [16] turn out when `CC(=O)Nc1ccc(-c2csc(N)n2)cc1` was run?
**A.** Its value is 10 Hz.

**Q.** What about the waterLOGSY factor [2] of the same compound?
**A.** Its waterLOGSY factor is 2.87.

**Q.** What about the waterLOGSY factor [17] of the same compound?
**A.** The waterLOGSY factor was 8.

**Q.** What about the waterLOGSY factor [7] of the same compound?
**A.** The waterLOGSY factor was 1.8.

**Q.** `CNC(=O)c1ccccc1NC(=O)c1ccco1` was tested. Which “1H chemical shift perturbation upon RNA addition” value [16] did it give?
**A.** Its value is 7 Hz.

**Q.** And the “1H chemical shift perturbation upon RNA addition” value [18]?
**A.** Its value is 9 Hz.

**Q.** And the “1H chemical shift perturbation upon RNA addition” value [19]?
**A.** The value was 7.56 Hz.

**Q.** What about the waterLOGSY factor [2] of the same compound?
**A.** The waterLOGSY factor was 2.9.

**Q.** And the waterLOGSY factor [3]?
**A.** The waterLOGSY factor was 1.75.

**Q.** And the waterLOGSY factor [17]?
**A.** Its waterLOGSY factor is 5.59.

**Q.** What about the waterLOGSY factor [7] of the same compound?
**A.** The waterLOGSY factor was 1.94.

**Q.** Which results are given for `Cc1ccccc1OCC(=O)Nc1ccccc1`?
**A.** 1H chemical shift perturbation upon RNA addition [16]: 3 Hz; 1H chemical shift perturbation upon RNA addition [10]: 1 Hz; waterLOGSY factor [2]: 1.7; waterLOGSY factor [7]: 1.35

**Q.** `O=C(NO)c1ccc2ccccc2n1` was tested. Which “1H chemical shift perturbation upon RNA addition” value [1] did it give?
**A.** Its value is 6 Hz.

**Q.** Which results are given for `Cc1occc1C(=O)Nc1ccncc1`?
**A.** 1H chemical shift perturbation upon RNA addition [16]: 7 Hz; 1H chemical shift perturbation upon RNA addition [1]: 11 Hz; 1H chemical shift perturbation upon RNA addition [19]: 11.6 Hz; 1H chemical shift perturbation upon RNA addition [10]: 3 Hz; waterLOGSY factor [2]: 2.04; waterLOGSY factor [12]: 1.51; waterLOGSY factor [3]: 1.81; waterLOGSY factor [17]: 3.53; waterLOGSY factor [14]: 0.68; waterLOGSY factor [7]: 1.75

**Q.** Which “1H chemical shift perturbation upon RNA addition” value [16] does the source give for `CC(C)c1ccc(C(=O)Nc2nncs2)cc1` here?
**A.** Its value is 12 Hz.

**Q.** And the waterLOGSY factor [2]?
**A.** Its waterLOGSY factor is 1.72.

**Q.** What about the waterLOGSY factor [7] of the same compound?
**A.** The waterLOGSY factor was 1.25.

**Q.** For `c1cc(-c2ccc3c(c2)OCO3)n[nH]1`, which “1H chemical shift perturbation upon RNA addition” value [16] is on record?
**A.** The value was 6 Hz.

**Q.** What about the “1H chemical shift perturbation upon RNA addition” value [19] of the same compound?
**A.** Its value is 6.37 Hz.

**Q.** What about the waterLOGSY factor [2] of the same compound?
**A.** Its waterLOGSY factor is 1.89.

**Q.** What about the waterLOGSY factor [3] of the same compound?
**A.** The waterLOGSY factor was 1.27.

**Q.** And the waterLOGSY factor [17]?
**A.** The waterLOGSY factor was 2.77.

**Q.** What about the waterLOGSY factor [7] of the same compound?
**A.** Its waterLOGSY factor is 1.61.
